No constants are given. Whether binding was seen depends on the method and setting. Binding calls can cover weak binding; strength is not graded here. Where no end group is shown, it is not given here. The star is where a group is joined. Biotin = O=C1N[C@H]2[C@H](CS[C@H]2CCCCC(=O)*)N1
Legend:
Fibrin [1] = test: ELISA
FGG [2] = test: ELISA (FGG ELISA), RFU readout
Fibrin [3] = test: ELISA (Fibrin ELISA), RFU readout
FGG [4] = test: ELISA (FGG ELISA), RFU readout; B and C are duplicates of clone 61278
Fibrin [5] = test: ELISA (Fibrin ELISA), RFU readout; B and C are duplicates of clone 61278

Measured: binding

B1: antibody clone 60143 (full length ADI-60143 IgG) (antibody, V domains shown)
VH: QVQLVQSGAEVKKPGASVKVSCKASGYTFTSTWIHWVRQAPGQGLEWIGLIDPSDSYTNYNQKFRGRATLTVDTSTSTAYMELSSLRSEDTAVYYCASSKPTGGWGQGTTVTVSS
VL: DIVMTQSPLSLPVTPGEPASISCRSSKSLLHSSGITYLSWYLQKPGQSPQLLIYQMSNLASGVPDRFSGSGSGTDFTLKISRVEAEDVGVYYCAQNLELPLTFGGGTKVEIKR
binds: Fibrin [1] | FGG [2] | Fibrin [3]

B2: antibody clone 61278 (ADI-61278 IgG) (antibody, V domains shown)
VH: QVQLVQSGAEVKKPGASVKVSCKASGYTFTSYWIHWVRQAPGQGLEWMGLIDPSDSYTNYNQKFRGRVTMTVDTSTSTAYMELSSLRSEDTAVYYCASSDATGGWGQGTTVTVSS
VL: DIVMTQSPLSLPVTPGEPASISCRSSKSLLHSSGITYLSWYLQKPGQSPQLLIYQMSNLASGVPDRFSGSGSGTDFTLKISRVEAEDVGVYYCAQALELPLTFGGGTKVEIKR
binds: Fibrin [1] | FGG [4] | Fibrin [5]
